US6428529B1, “Epidural administration of therapeutic compounds with sustained rate of release” (SkyePharma Inc., priority 1995, dated 2002)

Test system: rats
Assay: Antinociception, hot plate test after epidural (or subcutaneous) dose
Assay type: in vivo, Sprague-Dawley rats
Settings: p<0.05 for each comparison

Compound: CN1CC[C@]23c4c5ccc(O)c4O[C@H]2[C@@H](O)C=C[C@H]3[C@H]1C5.O=S(=O)(O)O [MS, morphine sulfate]
- peak-analgesia potency (ranking), epidural: greater than that of epidural DTC401
